According to patent US5162499A, “Synthetic peptides for the treatment of AIDS” (Heterocyclic Research, Inc., priority 1991, dated 1992):
Part of at least one peptide drawing is inferred or uncertain, most often the ends. Peptide text beside a SMILES is read from it.

Test system: Human monocytes
Test: Chemotaxis assay (monocyte migration in agarose plates)
Format: cell-based
Set-up: key: (cells migrating to attractant − cells migrating to buffer)/10
Text: Briefly, monocyte migration is directly observed in a chemotaxis chamber.
A comparative study comparing the chemotactic activity of the peptides of the invention with the chemotactic activity of peptide T (C. B. Pert et al., Proc. Natl. Acad. Sci., Vol. 83, pp. 9254-9258, 1986) was undertaken. […] Human monocytes were obtained by the known technique of layering heparinized blood on FICOLL-HYPAQUE differential dentrifugation medium in a centrifuge tube and spinning to separate the red blood cells from plasma and the monolayered monocytes. The monocytes were pipetted off and then washed with physiological saline.
The agarose plates were also prepared in accordance with conventional methods. Agarose type II (0.4 g), available from Sigma Chemical, and LITEX gelatin (0.3 g) were combined and heated until the gelatin was thoroughly dissolved. RMPI-HANK buffer (4 ml), distilled water (15.2 ml) and saturated NaHCO3 solution (0.8 ml) were then added to the agarose gelatin and mixed to homogeneity. […] The migration of monocytes was visually observed and the number of migrating cells was determined. A chemotactic index was calculated as the number of cells which migrated toward the attractant, i.e., test peptide or control, less the number of cells that migrated towards the buffer divided by 10. […]

SMILES | Chemotactic Index (all conc.s, negative control) | Chemotactic Index (attractant concentration 10^-7 M)
CC(C)C[C@H](N)C(=O)NCC(=O)NCC(=O)O [Leu--Gly--Gly, Leu-Gly-Gly, reference compound] (H-Leu-Gly-Gly-OH) | 0 | –
CSCC[C@H](NC=O)C(=O)N[C@@H](CC(C)C)C(=O)N[C@@H](Cc1ccccc1)C(=O)O [Formyl--Met--Leu--Phe, Formyl-Met-Leu-Phe, reference compound] | – | 2.8
